Measured values taken from publication PMC6370850.
These are yes or no findings as the source states them, for the method shown. In cells and extracts the contact can be indirect. Some entries that bind do so weakly or less than the wild type.

Protein sequences, listed by entry. Tags and fused reporters are not part of them. Lines headed by an entry give the natural chain unless they say otherwise; changes in a name come on top.
UniProt Q9UDY8: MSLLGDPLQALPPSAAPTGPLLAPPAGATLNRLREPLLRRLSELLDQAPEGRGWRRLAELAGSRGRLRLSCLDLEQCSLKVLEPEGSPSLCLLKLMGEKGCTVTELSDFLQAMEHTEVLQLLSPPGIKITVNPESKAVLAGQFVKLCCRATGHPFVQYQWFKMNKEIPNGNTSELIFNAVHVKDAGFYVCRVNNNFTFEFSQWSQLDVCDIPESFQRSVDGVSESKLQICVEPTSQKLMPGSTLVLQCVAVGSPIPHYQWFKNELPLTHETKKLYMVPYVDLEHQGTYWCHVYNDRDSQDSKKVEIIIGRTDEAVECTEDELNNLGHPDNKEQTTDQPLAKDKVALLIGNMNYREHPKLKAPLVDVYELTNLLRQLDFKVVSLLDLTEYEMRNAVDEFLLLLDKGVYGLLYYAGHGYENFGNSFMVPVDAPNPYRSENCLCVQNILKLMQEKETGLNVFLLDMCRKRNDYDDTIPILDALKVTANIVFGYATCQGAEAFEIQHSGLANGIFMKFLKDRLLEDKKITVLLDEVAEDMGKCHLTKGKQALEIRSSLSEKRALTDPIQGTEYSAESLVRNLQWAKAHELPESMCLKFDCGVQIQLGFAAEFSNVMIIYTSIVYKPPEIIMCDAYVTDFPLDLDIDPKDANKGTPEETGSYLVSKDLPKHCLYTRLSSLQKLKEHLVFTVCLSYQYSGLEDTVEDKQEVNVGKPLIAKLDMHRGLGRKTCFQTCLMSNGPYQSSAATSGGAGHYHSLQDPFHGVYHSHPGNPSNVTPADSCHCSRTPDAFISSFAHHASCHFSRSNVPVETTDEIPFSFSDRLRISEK
UniProt P42227: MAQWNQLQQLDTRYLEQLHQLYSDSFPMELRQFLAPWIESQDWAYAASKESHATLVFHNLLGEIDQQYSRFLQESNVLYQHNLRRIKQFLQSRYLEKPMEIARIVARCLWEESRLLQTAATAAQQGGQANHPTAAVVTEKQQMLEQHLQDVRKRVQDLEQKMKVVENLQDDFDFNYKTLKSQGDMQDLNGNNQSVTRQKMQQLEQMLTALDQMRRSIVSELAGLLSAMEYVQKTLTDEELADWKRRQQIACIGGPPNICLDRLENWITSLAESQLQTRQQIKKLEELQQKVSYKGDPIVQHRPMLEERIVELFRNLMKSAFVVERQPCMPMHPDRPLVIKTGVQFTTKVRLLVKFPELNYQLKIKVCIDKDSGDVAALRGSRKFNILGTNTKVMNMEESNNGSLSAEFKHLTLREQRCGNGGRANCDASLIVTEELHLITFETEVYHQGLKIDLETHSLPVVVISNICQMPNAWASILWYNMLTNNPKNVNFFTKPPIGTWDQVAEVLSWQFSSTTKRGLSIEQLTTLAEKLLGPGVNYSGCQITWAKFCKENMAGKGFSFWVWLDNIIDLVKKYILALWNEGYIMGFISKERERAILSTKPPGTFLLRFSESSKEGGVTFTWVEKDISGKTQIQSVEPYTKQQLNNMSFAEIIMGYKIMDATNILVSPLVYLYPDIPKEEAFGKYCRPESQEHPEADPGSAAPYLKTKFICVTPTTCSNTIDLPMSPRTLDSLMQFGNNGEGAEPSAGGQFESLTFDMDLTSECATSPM
UniProt Q2TBA3: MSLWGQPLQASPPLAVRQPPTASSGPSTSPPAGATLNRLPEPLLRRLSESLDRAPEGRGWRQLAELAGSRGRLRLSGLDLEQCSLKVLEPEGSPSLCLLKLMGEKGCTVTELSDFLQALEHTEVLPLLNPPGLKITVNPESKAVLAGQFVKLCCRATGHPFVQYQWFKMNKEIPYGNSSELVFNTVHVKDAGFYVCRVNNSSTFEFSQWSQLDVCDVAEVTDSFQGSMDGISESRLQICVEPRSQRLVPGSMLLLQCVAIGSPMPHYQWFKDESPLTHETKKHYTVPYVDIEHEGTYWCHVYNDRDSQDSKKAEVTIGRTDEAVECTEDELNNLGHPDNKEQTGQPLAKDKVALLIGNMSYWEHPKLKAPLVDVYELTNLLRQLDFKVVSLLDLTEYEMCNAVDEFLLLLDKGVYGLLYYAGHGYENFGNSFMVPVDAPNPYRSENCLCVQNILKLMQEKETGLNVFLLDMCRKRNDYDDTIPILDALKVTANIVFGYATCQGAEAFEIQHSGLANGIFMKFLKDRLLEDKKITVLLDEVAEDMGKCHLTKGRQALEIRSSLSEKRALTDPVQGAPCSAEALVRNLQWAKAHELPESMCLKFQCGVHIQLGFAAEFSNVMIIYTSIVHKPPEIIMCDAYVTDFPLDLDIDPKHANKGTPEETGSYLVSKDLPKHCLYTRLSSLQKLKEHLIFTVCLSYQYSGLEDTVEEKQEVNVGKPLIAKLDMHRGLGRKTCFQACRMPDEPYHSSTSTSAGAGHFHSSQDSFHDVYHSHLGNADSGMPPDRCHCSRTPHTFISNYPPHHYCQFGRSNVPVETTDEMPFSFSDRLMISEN

How the values were obtained:
[1] = target: MALT1 isoform A K648R with C-terminal Flag-Strep-Strep tag (UniProt Q9UDY8); assay: pull-down; StrepTactin pulldown (ST-PD) of StrepII-tagged MALT1A from lysates of reconstituted MALT1KO Jurkat T cells in co-IP buffer (25 mM HEPES pH 7.5, 150 mM NaCl, 0.2% NP-40), 4 °C overnight; western blot
[2] = target: MALT1 isoform A WT with C-terminal Flag-Strep-Strep tag (UniProt Q9UDY8); assay: as above
[3] = target: Stat3 (endogenous, mouse CD4+ T cells) (mouse (endogenous in primary CD4+ T cells)) (UniProt P42227); assay: co-IP; endogenous proteins; Malt1, Stat3 or IgG immunoprecipitation (Protein A Sepharose, washes in TD150 buffer with 150 mM NaCl) of total protein extracts from dLN CD4+ T cells of WT mice 13 days after EAE induction; for Stat3 also naive CD4+ T cells with or without IL-6
[4] = target: Malt1 (endogenous, mouse CD4+ T cells) (mouse (endogenous in primary CD4+ T cells)) (UniProt Q2TBA3); assay: as above
[5] = target: Flag-Stat3 (mouse) (UniProt P42227); assay: co-IP; Flag or Xpress immunoprecipitation of protein extracts from HEK293T cells co-transfected with Flag-Stat3 and Xpress-Hectd3 constructs (HA-Ub co-transfected in Fig. 9a); immunoblot

| Binder | binding [1] | binding [2] | binding [3] | binding [4] | binding [5] |
| --- | --- | --- | --- | --- | --- |
| BCL10 (endogenous, Jurkat T cells) (protein, UniProt O95999 1-233) MEPTAPSLTEEDLTEVKKDALENLRVYLCEKIIAERHFDHLRAKKILSREDTEEISCRTSSRKRAGKLLDYLQENPKGLDTLVESIRREKTQNFLIQKITDEVLKLRNIKLEHLKGLKCSSCEPFPDGATNNLSRSNSDESNFSEKLRASTVMYHPEGESSTTPFFSTNSSLNLPVLEVGRTENTIFSSTTLPRPGDPGAPPLPPDLQLEEEGTCANSSEMFLPLRSRTVSRQ | binds | binds | – | – | – |
| CARMA1 (endogenous, Jurkat T cells) (protein, UniProt Q9BXL7 1-1154) MPGGGPEMDDYMETLKDEEDALWENVECNRHMLSRYINPAKLTPYLRQCKVIDEQDEDEVLNAPMLPSKINRAGRLLDILHTKGQRGYVVFLESLEFYYPELYKLVTGKEPTRRFSTIVVEEGHEGLTHFLMNEVIKLQQQMKAKDLQRCELLARLRQLEDEKKQMTLTRVELLTFQERYYKMKEERDSYNDELVKVKDDNYNLAMRYAQLSEEKNMAVMRSRDLQLEIDQLKHRLNKMEEECKLERNQSLKLKNDIENRPKKEQVLELERENEMLKTKNQELQSIIQAGKRSLPDSDKAILDILEHDRKEALEDRQELVNRIYNLQEEARQAEELRDKYLEEKEDLELKCSTLGKDCEMYKHRMNTVMLQLEEVERERDQAFHSRDEAQTQYSQCLIEKDKYRKQIRELEEKNDEMRIEMVRREACIVNLESKLRRLSKDSNNLDQSLPRNLPVTIISQDFGDASPRTNGQEADDSSTSEESPEDSKYFLPYHPPQRRMNLKGIQLQRAKSPISLKRTSDFQAKGHEEEGTDASPSSCGSLPITNSFTKMQPPRSRSSIMSITAEPPGNDSIVRRYKEDAPHRSTVEEDNDSGGFDALDLDDDSHERYSFGPSSIHSSSSSHQSEGLDAYDLEQVNLMFRKFSLERPFRPSVTSVGHVRGPGPSVQHTTLNGDSLTSQLTLLGGNARGSFVHSVKPGSLAEKAGLREGHQLLLLEGCIRGERQSVPLDTCTKEEAHWTIQRCSGPVTLHYKVNHEGYRKLVKDMEDGLITSGDSFYIRLNLNISSQLDACTMSLKCDDVVHVRDTMYQDRHEWLCARVDPFTDHDLDMGTIPSYSRAQQLLLVKLQRLMHRGSREEVDGTHHTLRALRNTLQPEEALSTSDPRVSPRLSRASFLFGQLLQFVSRSENKYKRMNSNERVRIISGSPLGSLARSSLDATKLLTEKQEELDPESELGKNLSLIPYSLVRAFYCERRRPVLFTPTVLAKTLVQRLLNSGGAMEFTICKSDIVTRDEFLRRQKTETIIYSREKNPNAFECIAPANIEAVAAKNKHCLLEAGIGCTRDLIKSNIYPIVLFIRVCEKNIKRFRKLLPRPETEEEFLRVCRLKEKELEALPCLYATVEPDMWGSVEELLRVVKDKIGEEQRKTIWVDEDQL | binds | binds | – | – | – |

Continued, values first:

| binding [1] | binding [2] | binding [3] | binding [4] | binding [5] | Binder |
| --- | --- | --- | --- | --- | --- |
| – | – | binds | binds | – | Hectd3 (endogenous, mouse CD4+ T cells) (enzyme, UniProt Q3U487 1-861) MAGPGPGAALESPRQLLGRVRFLAEAARSLRAGLPLPAALAFVPREVLYKLYKDPAGPSRVLLPVWEAEGLGLRVGAVGAAPGTGSGPLRAARDSIELRRGACVRTTGEELCNGHGLWVKLTKEQLAEHLSDCSLDEGWLLVCRPAEGGARLVPIDTPDHLQRQQQLFGVDYRPVLRWEQVVDLTYSHRLGSRPQPAEAYTEAIQRLLYVPPTWTYECDEDLIHFLYDHLGKEDENLGSVKQYVESIDVSSYTEEFNVSCLTDSNADTYWESDGSQCQHWVRLTMKKGTIVKKLLLTVDTTDDNFMPKRVVVYGGEGDNLKKLSDVNIDETLIGDVCVLEDMTVHLPIIEIRIVECRDDGIDVRLRGVKIKSSRQRELGLNADLFQPASLVRYPRLEGTDPEVLYRRAVLLQRFIKILDSVLHHLVPAWDHTLGTFSEIKQVKQFLLLSRQRPSLVAQCLRDSESSKPSFMPRLYINRRLAMEHRACPSRDPACKNAVFTQVYEGLKPSDKYEKPLDYRWPMRYDQWWECKFIAEGIIDQGGGFRDSLADMSEELCPSSADTPVPLPFFVRTANQGNGTGEARDMYVPNPSCRDFAKYEWIGQLMGAALRGKEFLVLALPGFVWKQLSGEEVSWSKDFPAVDSVLVKLLEVMEGVDKETFEFKFGKELTFTTVLSDQQVVELIPGGTGIVVEYEDRSRFIQLVRKARLEESKEQVAAMQAGLLKVVPQAVLDLLTWQELEKKVCGDPEVTVDALRKLTRFEDFEPSDTRVQYFWEALNNFTNEDRSRFLRFVTGRSRLPARIYIYPDKLGYETTDALPESSTCSSTLFLPHYASAKVCEEKLRYAAYNCVAIDTDMSPWEE |
| – | – | – | – | binds | Xpress-Hectd3 (enzyme, UniProt Q3U487 1-861) MAGPGPGAALESPRQLLGRVRFLAEAARSLRAGLPLPAALAFVPREVLYKLYKDPAGPSRVLLPVWEAEGLGLRVGAVGAAPGTGSGPLRAARDSIELRRGACVRTTGEELCNGHGLWVKLTKEQLAEHLSDCSLDEGWLLVCRPAEGGARLVPIDTPDHLQRQQQLFGVDYRPVLRWEQVVDLTYSHRLGSRPQPAEAYTEAIQRLLYVPPTWTYECDEDLIHFLYDHLGKEDENLGSVKQYVESIDVSSYTEEFNVSCLTDSNADTYWESDGSQCQHWVRLTMKKGTIVKKLLLTVDTTDDNFMPKRVVVYGGEGDNLKKLSDVNIDETLIGDVCVLEDMTVHLPIIEIRIVECRDDGIDVRLRGVKIKSSRQRELGLNADLFQPASLVRYPRLEGTDPEVLYRRAVLLQRFIKILDSVLHHLVPAWDHTLGTFSEIKQVKQFLLLSRQRPSLVAQCLRDSESSKPSFMPRLYINRRLAMEHRACPSRDPACKNAVFTQVYEGLKPSDKYEKPLDYRWPMRYDQWWECKFIAEGIIDQGGGFRDSLADMSEELCPSSADTPVPLPFFVRTANQGNGTGEARDMYVPNPSCRDFAKYEWIGQLMGAALRGKEFLVLALPGFVWKQLSGEEVSWSKDFPAVDSVLVKLLEVMEGVDKETFEFKFGKELTFTTVLSDQQVVELIPGGTGIVVEYEDRSRFIQLVRKARLEESKEQVAAMQAGLLKVVPQAVLDLLTWQELEKKVCGDPEVTVDALRKLTRFEDFEPSDTRVQYFWEALNNFTNEDRSRFLRFVTGRSRLPARIYIYPDKLGYETTDALPESSTCSSTLFLPHYASAKVCEEKLRYAAYNCVAIDTDMSPWEE |
